Results from PMC5371313.
Results are given in words; binding and its absence hold for the method and conditions named. In cells and extracts the contact can be indirect. Some entries that bind do so weakly or less than the wild type. Blank lines part the entries; values can stand above or below the molecule they belong to.

Chains of the proteins cited; added tags and fusions are not shown.
UniProt P08670: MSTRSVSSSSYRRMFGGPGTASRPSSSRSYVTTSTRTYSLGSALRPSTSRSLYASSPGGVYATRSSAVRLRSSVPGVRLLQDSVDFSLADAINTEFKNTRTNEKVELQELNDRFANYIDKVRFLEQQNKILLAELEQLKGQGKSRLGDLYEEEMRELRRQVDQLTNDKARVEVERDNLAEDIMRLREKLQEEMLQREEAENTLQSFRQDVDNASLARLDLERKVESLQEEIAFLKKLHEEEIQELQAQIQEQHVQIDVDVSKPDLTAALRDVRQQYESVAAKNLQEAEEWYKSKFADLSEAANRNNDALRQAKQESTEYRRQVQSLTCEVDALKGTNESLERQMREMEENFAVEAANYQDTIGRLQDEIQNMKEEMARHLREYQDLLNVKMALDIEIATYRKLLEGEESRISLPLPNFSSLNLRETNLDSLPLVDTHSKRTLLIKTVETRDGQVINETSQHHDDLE

Molecular target: T1, Annexin A1 (human (endogenous in 6-10B)) (UniProt P04083)
T1 sequence: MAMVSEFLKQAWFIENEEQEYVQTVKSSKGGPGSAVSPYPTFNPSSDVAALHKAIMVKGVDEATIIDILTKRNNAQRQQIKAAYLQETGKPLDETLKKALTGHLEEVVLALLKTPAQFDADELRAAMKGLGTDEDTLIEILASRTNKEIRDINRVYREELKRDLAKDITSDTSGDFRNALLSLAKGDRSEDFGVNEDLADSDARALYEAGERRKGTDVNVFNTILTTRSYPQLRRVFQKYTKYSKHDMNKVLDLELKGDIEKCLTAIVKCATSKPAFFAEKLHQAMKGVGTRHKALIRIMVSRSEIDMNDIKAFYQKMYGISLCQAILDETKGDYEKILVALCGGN
Test: co-IP; 6-10B NPC cell lysate precleared, immunoprecipitated with anti-Annexin A1 antibody, Protein G agarose at 4°C, washed three times with PBS; Western blot with anti-Vimentin, anti-S100A9, anti-Annexin A1; non-immune IgG as negative control

binding: binds
Molecule: Vimentin (from UniProt P08670 1-466)

binding: binds
B1: S100A9 (protein, UniProt P06702 1-114)
chain: MTCKMSQLERNIETIINTFHQYSVKLGHPDTLNQGEFKELVRKDLQNFLKKENKNEKVIEHIMEDLDTNADKQLSFEEFIMLMARLTWASHEKMHEGDEGPGHHHKPGLGEGTP
